Test results from article PMC3071830.
No constants are given. Whether binding was seen depends on the method and setting. In cells and extracts the contact can be indirect. Some entries that bind do so weakly or less than the wild type. For part of these data: Sequences can lack the tags named with a protein. Values belong to the molecule of their own block, whether it stands above or below them.

Chains of the proteins cited; added tags and fusions are not shown. Residues count along the entry.
UniProt P20029, residues 20-655: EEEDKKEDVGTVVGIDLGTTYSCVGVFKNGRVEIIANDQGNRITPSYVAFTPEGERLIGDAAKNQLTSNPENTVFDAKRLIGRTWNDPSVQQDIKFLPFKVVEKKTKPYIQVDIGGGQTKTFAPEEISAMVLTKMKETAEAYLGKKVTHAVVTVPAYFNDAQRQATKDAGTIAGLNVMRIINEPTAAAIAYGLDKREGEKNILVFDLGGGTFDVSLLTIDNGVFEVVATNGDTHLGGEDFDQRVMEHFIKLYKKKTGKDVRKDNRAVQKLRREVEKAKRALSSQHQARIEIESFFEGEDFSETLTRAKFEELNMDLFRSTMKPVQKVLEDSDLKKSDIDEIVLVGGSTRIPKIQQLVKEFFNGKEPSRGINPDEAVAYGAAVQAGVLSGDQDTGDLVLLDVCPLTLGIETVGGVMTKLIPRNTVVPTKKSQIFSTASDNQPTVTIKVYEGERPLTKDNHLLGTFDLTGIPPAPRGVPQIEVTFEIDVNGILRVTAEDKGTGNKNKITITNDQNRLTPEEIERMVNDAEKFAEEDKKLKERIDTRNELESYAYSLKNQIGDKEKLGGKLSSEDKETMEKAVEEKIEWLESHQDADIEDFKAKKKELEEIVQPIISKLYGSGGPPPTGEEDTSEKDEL

What was measured:
[1] = biological target: T1, UFBP1, endogenous (mouse (endogenous in MIN6)) (UniProt Q80WW9); assay: co-IP; cell lysates incubated with BiP, UFBP1 or UFM1 antibody, bound to protein A-TSK sepharose; SDS-PAGE and immunostaining
T1 sequence: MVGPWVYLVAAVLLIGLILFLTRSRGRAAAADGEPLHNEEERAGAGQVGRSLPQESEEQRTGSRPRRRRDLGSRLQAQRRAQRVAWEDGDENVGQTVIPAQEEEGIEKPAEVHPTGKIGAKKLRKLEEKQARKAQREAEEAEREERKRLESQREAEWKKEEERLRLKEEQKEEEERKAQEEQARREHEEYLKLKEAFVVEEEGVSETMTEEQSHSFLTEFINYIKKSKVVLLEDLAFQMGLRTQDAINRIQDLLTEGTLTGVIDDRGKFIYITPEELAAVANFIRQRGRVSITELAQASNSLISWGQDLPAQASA

[2] = biological target: T2, CDK5RAP3-GST (mouse), Q99LM2; assay: pull-down; GST-UFM1(G), CDK5RAP3-GST or GST on glutathione-agarose beads; 35S-labelled in vitro translated proteins, pre-cleared on GST beads, added together with pre-cleared MIN6 lysate in ubiquitilation buffer (50 mM Tris pH 7.5, 100 mM NaCl, 0.1% NP40, 1 mM DTT, 2 mM ATP, 5 mM MgCl2), 30 min at 40°C as printed; phosphorimaging; only the target purified; settings: remark: other sources report otherwise
T2 chain: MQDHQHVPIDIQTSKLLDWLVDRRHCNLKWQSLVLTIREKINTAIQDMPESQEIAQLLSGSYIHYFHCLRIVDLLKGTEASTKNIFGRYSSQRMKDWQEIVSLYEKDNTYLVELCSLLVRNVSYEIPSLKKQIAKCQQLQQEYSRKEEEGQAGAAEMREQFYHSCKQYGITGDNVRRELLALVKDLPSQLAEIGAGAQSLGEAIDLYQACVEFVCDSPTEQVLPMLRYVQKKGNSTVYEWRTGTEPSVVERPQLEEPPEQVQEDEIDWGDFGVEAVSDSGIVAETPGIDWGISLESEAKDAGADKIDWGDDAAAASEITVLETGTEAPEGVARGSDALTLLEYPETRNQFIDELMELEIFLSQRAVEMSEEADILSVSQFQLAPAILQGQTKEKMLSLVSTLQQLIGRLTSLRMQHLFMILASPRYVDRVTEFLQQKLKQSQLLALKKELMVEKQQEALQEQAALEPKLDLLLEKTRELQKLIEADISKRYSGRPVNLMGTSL

CDK5RAP3-GST (mouse) = biological target: T3, CDK5RAP3-GST (mouse) (UniProt Q99LM2); assay: as above
T3 sequence: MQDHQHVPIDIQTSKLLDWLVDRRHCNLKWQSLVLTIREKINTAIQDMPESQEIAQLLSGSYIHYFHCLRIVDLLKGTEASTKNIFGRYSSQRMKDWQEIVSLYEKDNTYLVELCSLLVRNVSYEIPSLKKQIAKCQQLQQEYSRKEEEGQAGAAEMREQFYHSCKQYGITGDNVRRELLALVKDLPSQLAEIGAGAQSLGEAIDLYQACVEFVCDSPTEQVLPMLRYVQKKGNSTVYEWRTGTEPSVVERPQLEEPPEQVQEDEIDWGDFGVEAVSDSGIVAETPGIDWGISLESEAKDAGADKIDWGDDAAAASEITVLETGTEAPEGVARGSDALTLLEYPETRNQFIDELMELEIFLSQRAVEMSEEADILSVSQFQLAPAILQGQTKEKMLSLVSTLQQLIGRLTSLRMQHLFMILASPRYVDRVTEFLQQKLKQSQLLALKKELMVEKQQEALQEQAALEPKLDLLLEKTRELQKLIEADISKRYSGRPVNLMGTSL

binding [1]: binds
Molecule: BiP (HSPA5), endogenous (from UniProt P20029 20-655)

binding [2]: no binding
B1: 35S-labelled mouse UFBP1 (UFM1-binding protein 1 containing a PCI domain), in vitro translated, Q80WW9 1-315 (protein)
chain: MVGPWVYLVAAVLLIGLILFLTRSRGRAAAADGEPLHNEEERAGAGQVGRSLPQESEEQRTGSRPRRRRDLGSRLQAQRRAQRVAWEDGDENVGQTVIPAQEEEGIEKPAEVHPTGKIGAKKLRKLEEKQARKAQREAEEAEREERKRLESQREAEWKKEEERLRLKEEQKEEEERKAQEEQARREHEEYLKLKEAFVVEEEGVSETMTEEQSHSFLTEFINYIKKSKVVLLEDLAFQMGLRTQDAINRIQDLLTEGTLTGVIDDRGKFIYITPEELAAVANFIRQRGRVSITELAQASNSLISWGQDLPAQASA
modifications: here or on the partner: 35S-methionine labelled

binding (CDK5RAP3-GST (mouse)): binds
B2: 35S-labelled mouse UFL1, in vitro translated (protein, UniProt Q8CCJ3 1-793)
chain: MADAWEEIRRLAADFQRAQFAESTQRLSERNCIEIVNKLISQKQLEVVHTLDGKEYITPAQISKEMRDELHVRGGRVNIVDLQQVINVDLTHIESRVSDIIKSEKHVQMVLGQLIDENYLDQLSEEVNDKLQESGQVTVSELCKAYDLPGDFLTQALTQRLGRIINGHLDLDNRGVIFTEAFVARHKARIRGLFSAITRPTPVNSLVSKYGFQEQLLYSVLEDLVSTGRLRGTVVGGRQDKAVFVPDIYSRTQSTWVDSFFRQNGYLEFDALSRLGIPDAVNYIKKRYKNTQLLFLKATCVGQGLVDQVEASVEEAISSGTWVDISPLLPSSLSVEDAAMLLQQVMRPFGKLASAIVFSDTVVVSEKFITDCTGLFSERMHQKAEKEMKNNPVHLITEEDLKQISILESVNTSKKDKKDERRKKATEGSGSVRGGGGGNAREYKIKKTKKKGRKDEDSDDESQSSHGGKKKPDITFMFQDEIEDCLRKHIQDAPEEFISELAEYLIKPLNKMYLEVVRSVFMSSTSASGTGRKRTIKDLQEEVSNLYNNIRLFEKGMKYFADDTQTALTKHLLKTVCTDITNLMFNFLASDFLMAVEEPAAITSDIRKKILSKLTEETKVALTKLHNSLNEKSIEDFLSCLDSATEACDIMVKKGDKKRERQILFQHRQALCEQLKVTEDPALILHLTAVLLFQLSTHSMLHAPGRCVPQIIAFLHSKIPEDQHTLLVKYQGLVVKQLVSQNKKTGQGEDPSSDELDKEQHDVTNATRKELQELSLSIKDLVLKSRKSSVTEE
modifications: 35S-methionine labelled
